From article PMC5709507
No constants are given. Whether binding was seen depends on the method and setting. For some of these results: Binding seen in cells or lysates may run through a third protein. Some binding calls cover weakened binding; strength is not graded here. For some of these results: Tags and fused reporters may be left off the sequences shown. Each block holds one molecule with its values, some of them ahead of it.

By UniProt entry, the sequences of proteins in these tests, tags left out. Where a name states a change or a piece, a line headed by the entry shows the natural chain unless it says otherwise. Chains listed by the source or under a name are the forms on record and can include a tag or linker.
full-length YAP (YAP2) of mouse cerebellum (mouse (endogenous in cerebellum)) (P46938-2, form named): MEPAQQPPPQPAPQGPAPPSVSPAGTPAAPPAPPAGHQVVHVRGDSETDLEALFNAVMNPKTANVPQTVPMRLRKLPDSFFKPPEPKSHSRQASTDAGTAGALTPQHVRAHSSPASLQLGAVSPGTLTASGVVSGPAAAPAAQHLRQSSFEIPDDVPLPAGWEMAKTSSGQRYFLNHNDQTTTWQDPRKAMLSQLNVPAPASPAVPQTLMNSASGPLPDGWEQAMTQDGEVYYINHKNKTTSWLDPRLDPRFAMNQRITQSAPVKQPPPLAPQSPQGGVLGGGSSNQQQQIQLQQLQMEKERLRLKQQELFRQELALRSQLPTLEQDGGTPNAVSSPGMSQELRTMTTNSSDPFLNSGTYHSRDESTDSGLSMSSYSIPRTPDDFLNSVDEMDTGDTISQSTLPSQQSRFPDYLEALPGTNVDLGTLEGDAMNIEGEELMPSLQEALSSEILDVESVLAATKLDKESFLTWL
UniProt Q92993: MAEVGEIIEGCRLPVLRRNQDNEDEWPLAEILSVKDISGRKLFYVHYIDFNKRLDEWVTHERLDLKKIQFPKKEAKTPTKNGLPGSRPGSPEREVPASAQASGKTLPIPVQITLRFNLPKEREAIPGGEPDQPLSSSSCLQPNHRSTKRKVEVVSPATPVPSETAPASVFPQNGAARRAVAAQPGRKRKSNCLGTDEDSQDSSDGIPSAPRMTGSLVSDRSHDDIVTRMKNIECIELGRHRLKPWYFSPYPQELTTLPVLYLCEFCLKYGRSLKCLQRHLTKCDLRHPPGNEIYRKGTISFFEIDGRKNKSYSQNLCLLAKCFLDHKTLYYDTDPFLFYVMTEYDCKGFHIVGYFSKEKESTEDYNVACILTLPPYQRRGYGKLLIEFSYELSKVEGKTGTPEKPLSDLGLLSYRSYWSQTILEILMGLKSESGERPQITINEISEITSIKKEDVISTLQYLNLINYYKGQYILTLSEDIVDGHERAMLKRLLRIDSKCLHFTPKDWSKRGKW

Legend:
[1] = biological target: T1, endogenous RORα of mouse cerebellar neurons and cerebellum (mouse (endogenous in primary cerebellar neurons and cerebellum)) (UniProt P51448); experiment: co-IP; cerebellar tissue of C57BL/6, Atxn1-KI (No Dox) and Group I mice at P7 and P21; reciprocal precipitation of YAP and RORα
T1 sequence: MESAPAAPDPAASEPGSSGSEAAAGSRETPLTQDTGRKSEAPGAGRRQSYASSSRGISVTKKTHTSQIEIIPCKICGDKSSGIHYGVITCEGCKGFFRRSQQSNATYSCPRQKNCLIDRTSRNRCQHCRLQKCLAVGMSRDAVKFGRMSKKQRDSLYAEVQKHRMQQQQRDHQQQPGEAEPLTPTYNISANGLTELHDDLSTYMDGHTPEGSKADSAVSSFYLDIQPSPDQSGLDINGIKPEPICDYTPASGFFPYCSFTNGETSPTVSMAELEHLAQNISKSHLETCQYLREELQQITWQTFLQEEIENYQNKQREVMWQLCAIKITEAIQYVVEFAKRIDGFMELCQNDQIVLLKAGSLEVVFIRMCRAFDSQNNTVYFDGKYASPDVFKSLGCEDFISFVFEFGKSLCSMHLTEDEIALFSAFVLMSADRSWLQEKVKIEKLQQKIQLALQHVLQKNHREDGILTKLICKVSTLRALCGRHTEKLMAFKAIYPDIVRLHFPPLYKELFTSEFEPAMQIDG

[2] = biological target: T2, human RORα, wild type (RORα-pCIneo) (human) (UniProt P35398); experiment: co-IP; COS-7 cells transiently overexpressing RORα, 2 days after transfection; lysis and washes in TNE buffer (10 mM Tris-HCl pH 7.5, 150 mM NaCl, 1 mM EDTA, 1% Nonidet P-40); Protein G-Sepharose
T2 sequence: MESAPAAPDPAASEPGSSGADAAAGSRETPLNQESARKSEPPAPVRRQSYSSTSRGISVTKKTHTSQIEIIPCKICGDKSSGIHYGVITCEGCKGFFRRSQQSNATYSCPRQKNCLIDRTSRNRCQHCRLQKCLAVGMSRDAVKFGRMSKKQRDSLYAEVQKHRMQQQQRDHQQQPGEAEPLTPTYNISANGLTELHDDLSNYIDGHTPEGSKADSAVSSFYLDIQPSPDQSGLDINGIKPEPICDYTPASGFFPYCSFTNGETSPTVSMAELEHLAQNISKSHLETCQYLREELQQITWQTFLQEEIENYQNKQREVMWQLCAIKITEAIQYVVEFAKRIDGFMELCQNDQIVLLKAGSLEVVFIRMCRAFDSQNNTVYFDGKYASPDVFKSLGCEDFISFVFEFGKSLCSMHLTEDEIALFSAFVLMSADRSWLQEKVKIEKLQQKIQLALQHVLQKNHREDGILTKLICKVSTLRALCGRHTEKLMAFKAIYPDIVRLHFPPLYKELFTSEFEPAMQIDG

[3] = biological target: T2, human RORα, wild type (RORα-pCIneo) (human); experiment: co-IP; mouse primary cerebellar neurons transfected with FLAG-YAP2, FLAG-YAPdeltaC or YAP2 WW mutants, with endogenous or transfected RORα; 2 days after transfection; precipitation with anti-FLAG and anti-RORα antibodies
[4] = biological target: T3, GST-RORα (a.a. 424–523) (human) (UniProt P35398); experiment: pull-down; GST-RORα (a.a. 424-523), His-Tip60 and His-YAP mixed in PBS with 0.1% Tween-20 and protease inhibitors, 12 h at 4 °C; GST-RORα pulled down with glutathione-Sepharose; rising amounts of His-Tip60 or His-YAP; both purified
T3 sequence: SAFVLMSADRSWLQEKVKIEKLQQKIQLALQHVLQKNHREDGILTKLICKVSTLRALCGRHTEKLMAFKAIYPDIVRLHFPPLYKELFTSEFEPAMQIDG

[5] = biological target: full-length YAP (YAP2) of mouse cerebellum (mouse (endogenous in cerebellum)) (UniProt P46938); experiment: co-IP; cerebellar tissue of C57BL/6, Atxn1-KI (No Dox) and Group I mice at P7 and P21; reciprocal precipitation of YAP and RORα
[6] = biological target: FLAG-YAP2 (full-length YAP) (not stated (human or rat cDNA cloned)) (UniProt P46937); experiment: co-IP; mouse primary cerebellar neurons transfected with FLAG-YAP2, FLAG-YAPdeltaC or YAP2 WW mutants, with endogenous or transfected RORα; 2 days after transfection; precipitation with anti-FLAG and anti-RORα antibodies
[7] = biological target: FLAG-YAP2 (full-length YAP) (not stated (human or rat cDNA cloned)) (UniProt P46937); experiment: co-IP; COS-7 cells transiently overexpressing RORα, 2 days after transfection; lysis and washes in TNE buffer (10 mM Tris-HCl pH 7.5, 150 mM NaCl, 1 mM EDTA, 1% Nonidet P-40); Protein G-Sepharose

Molecule: full-length YAP (YAP2) of mouse cerebellum (from UniProt P46938-2 1-472)
binding [1]: binds

Molecule: His-Tip60 (from UniProt Q92993 1-513)
binding [4]: binds

B2: human RORα, wild type (RORα-pCIneo) (protein, UniProt P35398-2 1-523)
chain: T2 sequence
binding [7]: binds | binding [6]: binds

B3: normal Atxn1 of mouse cerebellum (protein, UniProt P54254 1-791)
chain: MKSNQERSNECLPPKKREIPATSRPSEEKATALPSDNHCVEGVAWLPSTPGIRGHGGGRHGSAGTSGEHGLQGMGLHKALSAGLDYSPPSAPRSVPTANTLPTVYPPPQSGTPVSPVQYAHLSHTFQFIGSSQYSGPYAGFIPSQLISPSGNPVTSAVASAAGATTPSQRSQLEAYSTLLANMGSLSQAPGHKVEPPPQQHLSRAAGLVNPGSPPPPTQQNQYIHISSSPQSSGRATSPPPIPVHLHPHQTMIPHTLTLGPSSQVVVQYSDAGGHFVPRESTKKAESSRLQQAMQAKEVLNGEMEKSRRYGASSSVELSLGKASSKSVPHPYESRHVVVHPSPADYSSRDTSGVRGSVMVLPNSSTPSADLEAQQTTHREASPSTLNDKSGLHLGKPGHRSYALSPHTVIQTTHSASEPLPVGLPATAFYAGTQPPVIGYLSGQQQAITYAGGLPQHLVIPGNQPLLIPVGSPDMDTPGAASAIVTSSPQFAAVPHTFVTTALPKSENFNPEALVTQAAYPAMVQAQIHLPVVQSVASPTTASPTLPPYFMKGSIIQLANGELKKVEDLKTEDFIQSAEISNDLKIDSSTVERIEESHSPGVAVIQFAVGEHRAQVSVEVLVEYPFFVFGQGWSSCCPERTSQLFDLPCSKLSVGDVCISLTLKNLKNGSVKKGQPVDPASVLLKQAKTDSLAGSRHRYAEQENGINQGSAQVLSENGELKFPEKIGLPAAPFLSKIEPSKPTATRKRRWSAPETRKLEKSEDEPPLTLPKPSLIPQEVKICIEGRSNVGK
binding [5]: binds

More lines, now with the values ahead:

binding [2]: binds | binding [3]: binds
Molecule: FLAG-YAP2 (full-length YAP) (from UniProt P46937-2 1-488)

binding [4]: binds
Molecule: His-YAP (full-length YAP2) (from UniProt P46937-2 1-488)

binding [5]: binds | binding [6]: binds
B1: endogenous RORα of mouse cerebellar neurons and cerebellum (protein, UniProt P51448 1-523)
chain: T1 sequence
